Changes are numbered by the printed parent chain. No constants are given. Whether binding was seen depends on the method and setting. Binding seen in cells or lysates may run through a third protein. Some results given as binding are weak or reduced against the parent protein; the word gives no strength. Where a sequence is shown, tags or fusion partners need not be part of it.
Experiments:
[1] = molecular target: T1, wild-type FLAG-tagged LZK (leucine zipper-bearing kinase, encoded by MAP3K13) (human) (UniProt O43283); assay: co-IP; FLAG-tagged LZK constructs transiently transfected in 293T cells; lysis in 1x Triton X-100 cell lysis buffer, lysate at 1 mg/mL; anti-FLAG (rat) antibody 2 h at 4 °C, Dynabeads Protein G 1 h, four washes with lysis buffer; p53 detected by Western blot
T1 sequence: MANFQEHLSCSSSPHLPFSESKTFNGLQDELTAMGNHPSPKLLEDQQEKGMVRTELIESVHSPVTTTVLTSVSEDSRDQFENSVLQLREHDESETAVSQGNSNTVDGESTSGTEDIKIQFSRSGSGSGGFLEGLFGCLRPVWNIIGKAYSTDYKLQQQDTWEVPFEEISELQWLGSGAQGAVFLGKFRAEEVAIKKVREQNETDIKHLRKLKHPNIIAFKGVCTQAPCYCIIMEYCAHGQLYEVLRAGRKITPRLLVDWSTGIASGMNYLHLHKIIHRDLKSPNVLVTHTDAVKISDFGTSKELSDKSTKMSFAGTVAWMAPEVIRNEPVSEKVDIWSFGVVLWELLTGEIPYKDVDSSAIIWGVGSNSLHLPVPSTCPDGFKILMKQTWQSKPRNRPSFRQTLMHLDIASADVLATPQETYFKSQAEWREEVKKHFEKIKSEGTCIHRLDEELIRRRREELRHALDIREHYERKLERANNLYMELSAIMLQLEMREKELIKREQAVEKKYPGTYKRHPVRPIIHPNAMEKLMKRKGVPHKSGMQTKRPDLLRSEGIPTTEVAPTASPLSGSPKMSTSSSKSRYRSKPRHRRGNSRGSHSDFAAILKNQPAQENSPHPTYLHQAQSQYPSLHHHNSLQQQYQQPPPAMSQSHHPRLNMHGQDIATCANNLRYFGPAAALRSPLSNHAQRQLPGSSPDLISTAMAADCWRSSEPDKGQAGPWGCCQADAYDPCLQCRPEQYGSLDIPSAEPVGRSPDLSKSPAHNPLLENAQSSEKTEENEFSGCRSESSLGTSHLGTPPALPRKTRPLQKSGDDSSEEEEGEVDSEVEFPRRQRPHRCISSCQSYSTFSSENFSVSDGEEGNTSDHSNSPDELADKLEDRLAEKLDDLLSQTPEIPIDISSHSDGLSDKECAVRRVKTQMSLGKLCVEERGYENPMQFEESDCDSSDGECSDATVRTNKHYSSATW

[2] = molecular target: T2, Flag-tagged kinase-dead K195M mutant LZK (human) (UniProt O43283); assay: as above
T2 sequence: T1 sequence with K195M

binding [1]: binds | binding [2]: binds
Substance: p53 (from UniProt P04637 1-393)
